Assay results from article PMC5800818.
Results are given in words; binding and its absence hold for the method and conditions named. Binding seen in cells or lysates may run through a third protein. A result given as binding can be weak or reduced; the word gives no strength. Where a sequence is shown, tags or fusion partners need not be part of it.

Columns and labels:
[1] = target: T1, FLAG-tagged Numb isoform-3 (full length) (human) (UniProt P49757); experiment: co-IP; HEK293 cells cotransfected with Mdm2 constructs and FLAG-tagged Numb constructs; anti-FLAG IP, immunoblot; in Fig. 1 A with siRNA against p53 or control oligonucleotides
T1 sequence: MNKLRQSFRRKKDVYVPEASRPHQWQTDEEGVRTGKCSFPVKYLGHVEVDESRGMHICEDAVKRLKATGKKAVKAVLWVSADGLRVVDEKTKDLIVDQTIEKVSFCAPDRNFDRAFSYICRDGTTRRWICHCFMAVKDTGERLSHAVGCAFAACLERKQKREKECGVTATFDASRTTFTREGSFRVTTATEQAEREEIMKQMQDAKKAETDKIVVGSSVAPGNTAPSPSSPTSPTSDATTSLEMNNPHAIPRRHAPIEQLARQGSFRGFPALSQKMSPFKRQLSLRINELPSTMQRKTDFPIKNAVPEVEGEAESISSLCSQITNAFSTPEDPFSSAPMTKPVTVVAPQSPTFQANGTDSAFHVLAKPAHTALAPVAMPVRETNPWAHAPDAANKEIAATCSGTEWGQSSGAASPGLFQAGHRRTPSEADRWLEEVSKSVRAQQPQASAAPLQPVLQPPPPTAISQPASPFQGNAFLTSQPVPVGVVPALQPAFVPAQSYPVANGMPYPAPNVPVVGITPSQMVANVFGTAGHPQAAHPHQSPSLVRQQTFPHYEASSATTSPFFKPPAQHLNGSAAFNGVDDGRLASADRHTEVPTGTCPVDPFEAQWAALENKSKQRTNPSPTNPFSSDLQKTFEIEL

[2] = target: T2, FLAG–Numb-1 (human Numb isoform-1, full length) (human) (UniProt P49757); experiment: as above
T2 sequence: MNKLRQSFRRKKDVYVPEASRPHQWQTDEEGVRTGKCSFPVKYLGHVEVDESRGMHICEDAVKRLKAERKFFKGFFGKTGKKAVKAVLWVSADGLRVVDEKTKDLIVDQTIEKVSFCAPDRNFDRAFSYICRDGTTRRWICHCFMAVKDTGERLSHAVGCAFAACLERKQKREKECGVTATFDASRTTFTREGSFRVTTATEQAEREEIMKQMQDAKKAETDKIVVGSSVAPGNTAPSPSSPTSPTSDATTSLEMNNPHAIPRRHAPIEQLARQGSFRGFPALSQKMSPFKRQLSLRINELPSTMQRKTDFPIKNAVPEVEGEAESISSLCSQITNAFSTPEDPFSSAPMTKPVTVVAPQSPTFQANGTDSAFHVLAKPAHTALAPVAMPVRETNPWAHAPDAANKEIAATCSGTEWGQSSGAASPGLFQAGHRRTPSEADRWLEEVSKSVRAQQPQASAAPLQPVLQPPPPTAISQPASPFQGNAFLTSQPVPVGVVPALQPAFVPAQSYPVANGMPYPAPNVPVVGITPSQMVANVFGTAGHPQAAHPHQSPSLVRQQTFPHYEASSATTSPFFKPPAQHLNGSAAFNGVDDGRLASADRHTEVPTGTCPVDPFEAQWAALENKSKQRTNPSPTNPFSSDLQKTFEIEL

Substance | binding [1] | binding [2]
β-Adaptin (human (endogenous in HEK293)) | binds | binds
catalytically inactive Mdm2-C464A mutant (from UniProt Q00987-11) |  | binds
